Data: PubChem BioAssay AID2685 (National Center for Advancing Translational Sciences (NCATS), 2010)
In all, about 320,000 compounds went through this assay and about 2,100 (0.66%) were called active. Inconclusive means that the source gave no clear call. Such entries were picked first, then a sample of the others. Calls come from the whole dose curve; as a rule, active = well fitted inhibition curve with a large enough effect in the signal ratio, with a control signal flat (not every such curve was filed as active); inconclusive = small, poorly fitted or top-dose-only effect, or effect the other way, or a change in a side signal; inactive = flat fitted curve, though single readings scatter; the % refers to the signal ratio. Potencies of inconclusive entries are doubtful fits and often do not repeat. Where a SMILES comes first, the peptide text is derived from it. [ ]: non-standard residue; d: D form. Inp = O=C(O)C1CCNCC1

Assay: qHTS Assay for Lipid Storage Modulators in Drosophila S3 Cells
Conditions: BODIPY lipid droplet fluorescence, 18-24 h, cells fed with added oleic acid; lipid storage change, negative = inhibition: at 46.1 µM (top of the series) unless noted
Summary of the method: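 Drosophila S3 cells got compounds at several concentrations plus oleic acid (400 uM solution). Laser-scanning cytometry with 488 nm excitation read lipid droplets at 500-530 nm and cells at 575-640 nm. Percent activity was relative to 20 uM Triacsin C.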
% is set by controls: 0 for no effect and ±100 for the full control effect; potency is the fitted concentration of half-maximal effect.

Structure (SMILES)	lipid storage change, negative = inhibition	Potency	outcome
O=C(COc1ccc(Br)cc1)NCCCn1ccnc1	inactive: -17.2%	–	–
O=C(N/N=C/c1ccc(OCc2ccc(F)cc2)cc1)c1ccccc1	inconclusive: -31.2%	–	–
CCCCN(C(=S)NC(=O)c1ccccc1)c1c(N)n(Cc2ccccc2)c(=O)[nH]c1=O	inactive: -6.94%	–	–
CC(=O)c1cccc(NC(=O)COC(=O)c2ccc(S(C)(=O)=O)c([N+](=O)[O-])c2)c1	inactive: -16.9%	–	–
CCC(=O)N1CCc2cc(Br)cc(S(=O)(=O)CC(=O)OC)c21	–	inconclusive: 1.3 µM [activator, full curve, poor fit]	–
COc1ccc2c(C)nc(N/C(N)=N/S(=O)(=O)c3ccc(C)cc3)nc2c1	–	inconclusive: 29.1 µM [cytotoxic, partial curve, poor fit]	–
COC(=O)c1c(C)[nH]c(C)c1-c1ccccc1Cl	inconclusive: 32.2%	–	–
Cc1ccccc1C(=O)Nc1ccc2c(c1)CCCN2C(=O)c1cccs1	–	inconclusive: 29.1 µM [falling, single point]	–
OCC[C@H]1C[C@@H](O)[C@H](O)[C@]2(CCc3ccccc3O2)O1	–	inconclusive: 0.366 µM [activator, full curve, poor fit]	–
Cc1ccc(S(=O)(=O)NCC(=O)NCC(=O)NC(C)c2ccccc2Br)cc1C (stereo not drawn)	–	inconclusive: 29.1 µM [activator, single point]	–
CC(=O)N1c2ccc(S(=O)(=O)N3CCC(C(=O)Nc4cccc(C)n4)CC3)cc2CC1C (stereo not drawn)	inconclusive: -34.7%	–	–
O=C(O)COc1ccc(Nc2ccccc2)cc1	inconclusive: 50.9%	–	–
CC1CCCCC1NC(=O)Cn1ncc2ccccc21 (stereo not drawn)	inconclusive: 30.8%	–	–
COc1ccc(NC(=O)N2CCCC2C(=O)Nc2cccc(C)c2C)cc1 (stereo not drawn)	–	inconclusive: 7.31 µM [falling, partial curve, poor fit]	–
CCn1nc(C)cc1C(=O)NC1CCCc2c1cnn2-c1ccc(C)c(C)c1 (stereo not drawn)	–	–	inactive [at 46.1 µM]
O=C(CN1C(=O)COc2ccc(S(=O)(=O)N3CCCC3)cc21)NCc1ccccn1	–	inconclusive: 3.26 µM [falling, single point]	–
Cc1cc(=O)oc2cc(OCC(=O)c3ccc4c(c3)NC(=O)CO4)ccc12	inconclusive: 6.52%	–	–
Cc1ccc(CN2C(=O)C(C)Nc3ncnc(N4CCN(c5ccccn5)CC4)c32)cc1 (stereo not drawn)	inconclusive: -69.2%	–	–
CCCN(CC(=O)Nc1ccccc1C)C(=O)c1ccc(-c2ccc([N+](=O)[O-])cc2)o1	–	active: 11.6 µM	–
O=C(NC(=S)N1CCCCC1c1cccnc1)c1ccc(F)cc1 (stereo not drawn)	inconclusive: 14.9%	–	–
CCC(C)c1ccc(NC(=O)C2=CC=CN3CCS(=O)(=O)N=C23)cc1 (stereo not drawn)	inconclusive: 6.86%	–	–
Cc1cccc(OCCOC(=O)c2c(-c3ccccc3)noc2C)c1	–	inconclusive: 29.1 µM [falling, single point]	–
Cc1ccc(S(=O)(=O)NCC(=O)NC2CCCC2)cc1	inconclusive: -0.0505%	–	–
CCCCN1CC(C(=O)NCc2ccc(C)cc2)CC1=O (stereo not drawn)	–	inconclusive: 0.0291 µM [falling, full curve, poor fit]	–
N[C@@H](Cc1ccccc1)C(=O)N1CCC(C(=O)NCC(=O)NCC(=O)O)CC1 (H-F[Inp]GG-OH)	inconclusive: -4.2%	–	–
Cc1cc(O)ccc1NC(=O)c1ccccc1	inconclusive: 43.1%	–	–

Of the compounds above, these contain a nitro group on carbon.
Structure (SMILES)	lipid storage change, negative = inhibition	Potency	outcome
CC(=O)c1cccc(NC(=O)COC(=O)c2ccc(S(C)(=O)=O)c([N+](=O)[O-])c2)c1	inactive: -16.9%	–	–
CCCN(CC(=O)Nc1ccccc1C)C(=O)c1ccc(-c2ccc([N+](=O)[O-])cc2)o1	–	active: 11.6 µM	–

The listing continues:

Structure (SMILES)	lipid storage change, negative = inhibition	Potency	outcome
CCOc1ccc(OCCOc2ccc(/C=C/C(=O)O)cc2OCC)cc1	–	inconclusive: 0.116 µM [activator, single point]	–
CCN(CC(=O)NCc1cccs1)S(=O)(=O)c1cc(NC(C)=O)ccc1OC	inconclusive: 25.5%	–	–
O=C(NCCc1ccccc1)c1ccc2c(c1)OCO2	inconclusive: -23.8%	–	–
CC(=O)Nc1ccc(C(=O)N(C)C(C(=O)Nc2ccc(C)cc2)c2ccccn2)cc1 (stereo not drawn)	inconclusive: 20.6%	–	–
C=CCn1c(SCC(=O)Nc2ncc(Cc3cc(C(F)(F)F)ccc3Cl)s2)nnc1-c1ccncc1	inconclusive: 16.6%	–	–
CCC(CC)c1nnc(NC(=O)c2cc([N+](=O)[O-])ccc2N2CCCCC2)s1	inconclusive: 30.7%	–	–
O=C(CN1C(=O)/C(=C2\SC(=S)N(C3CCS(=O)(=O)C3)C2=O)c2ccccc21)Nc1ccccc1 (stereo not drawn)	inactive: 3.37%	–	–
CN(C)S(=O)(=O)c1ccc(C(=O)NCc2nnc(SCC(=O)c3ccccc3)o2)cc1	inconclusive: -2.84%	–	–
Cc1cc(C(=O)OCC(=O)NCc2ccc(Cl)cc2)c(C)o1	inconclusive: 13.8%	–	–
Cc1ccccc1S(=O)(=O)Nc1ncc(C(F)(F)F)cc1Cl	inconclusive: 3.79%	–	–
COc1cc(C2C(C(=O)c3ccc(C)o3)=C(O)C(=O)N2Cc2cccnc2)ccc1O (stereo not drawn)	inconclusive: -32.4%	inconclusive: 6.51 µM [cytotoxic, single point]	–
COc1ccc(C2=NN(CCC(=O)NC3CCCCCC3)C(=O)CC2)cc1	–	inconclusive: 29.1 µM [activator, single point]	–
Cc1cccc(C(=O)N[C@H](C(=O)Nc2nc3ccc(S(C)(=O)=O)cc3s2)C(C)C)c1	inconclusive: -21.8%	–	–
OCCNc1nc(SCc2ccccc2)nc2sc3c(c12)CCC3	inconclusive: -12.9%	–	–
O=C(CNc1cccc(S(=O)(=O)N2CCCCCC2)c1)Nc1cccc([N+](=O)[O-])c1	–	active: 20.6 µM	–
COc1cccc(NC(=S)N2C3CCCC2CC(NC(=O)C2CC2)C3)c1 (stereo not drawn)	inconclusive: 87.2%	–	–
O=C1c2cccc3cccc(c23)N1Cc1ccc(F)cc1	inconclusive: 39.1%	–	–
COc1cc(NC(=O)C(F)(F)F)cc(OC)c1	inconclusive: -37.7%	–	–
Cc1ccccc1CCNC(=O)C1CCCN(c2cnccn2)C1 (stereo not drawn)	–	–	inactive [at 46.1 µM]
Cc1ccc2nc(NC(=O)CN3C(=O)C4CC=CCC4C3=O)sc2c1 (stereo not drawn)	inconclusive: -19.9%	–	–
CC(NC(=O)CNC(=O)C1O[C@@H]2OC(C)(C)O[C@@H]2[C@H]2OC(C)(C)O[C@@H]12)C(=O)O (stereo partly drawn)	inconclusive: -2.96%	–	–
[O-][n+]1onc2c3ccnnc3ccc21	inconclusive: 9.48%	–	–
Cc1cc(C(=O)NC(C)c2ccncc2)no1 (stereo not drawn)	inconclusive: 22.4%	–	–
Cc1ccc(CCNC(=O)c2ccc3nc4ccccc4c(=O)n3c2)cc1	inconclusive: -15.1%	–	–
COc1ccc(C(=O)/C=C2\NCC3c4ccccc4CCN3C2=O)cc1 (stereo not drawn)	inconclusive: -40.3%	–	–
O=C(O)Cc1ccc(NC(=O)Cc2ccc3ccccc3c2)cc1	–	inconclusive: 29.1 µM [activator, single point]	–

Structure (SMILES)	lipid storage change, negative = inhibition	Potency	outcome
CCC(CC)COC(=O)C1=C(C)NC(=O)NC1c1ccc(OC)cc1 (stereo not drawn)	–	inconclusive: 16.4 µM [falling, single point]	–
COC(=O)Nc1nnc(-c2ccccc2Cl)s1	–	inconclusive: 29.1 µM [falling, single point]	–
COc1ccc(CC(=O)NNC(=O)c2cc(C)[nH]n2)cc1	–	inconclusive: 0.13 µM [falling, full curve, poor fit]	–
CC(=O)Cn1cnc2scc(-c3ccc(C)c(C)c3)c2c1=O	–	inconclusive: 13 µM [activator, partial curve, poor fit]	–
CCOC(=O)c1c(NC(=O)CSc2nnnn2CC)sc(C)c1C	–	inconclusive: 5.8 µM [rising, single point]	–
O=C(Nc1ccc(F)cc1)C1CCCN1S(=O)(=O)c1cccc2nsnc12 (stereo not drawn)	inconclusive: -28%	–	–
CC(SCc1nc2sc3c(c2c(=O)[nH]1)CCCC3)C(=O)Nc1ccccn1 (stereo not drawn)	inconclusive: -1.03%	–	–
CCOC(=O)CSc1nc2cc(C(=O)NCc3ccco3)ccc2c(=O)n1C1CCCCC1	inconclusive: -76%	–	–
Cc1ccc(NC(=O)CSc2nnc(-c3ccncc3)s2)cc1	inactive: 37.9%	–	–
COc1ccccc1N(CC(=O)NCCN1CCOCC1)S(=O)(=O)c1ccccc1	inconclusive: 44.5%	–	–
O=C(NCC1CCCO1)c1nc(Cn2ccc([N+](=O)[O-])n2)no1 (stereo not drawn)	inconclusive: -5.08%	–	–
CCCS(=O)(=O)N1CCc2cc(OC)c(OC)cc2C1	–	inconclusive: 3.26 µM [falling, single point]	–
Cc1ccc(NC(=O)N2CCC(NC(=O)c3cccc(F)c3)CC2)cc1	inconclusive: -34.9%	–	–
Cc1cc(N/N=C/c2ccccc2Cl)nc(NCc2ccccc2)n1	inconclusive: -58.6%	–	–
Cc1cc(C)c(NC(=O)C2CCN(C(=O)c3ccco3)CC2)c(C)c1	inconclusive: -52.5%	–	–
Cc1cccc(-n2ncc3c(NCc4ccccc4)ncnc32)c1	–	inconclusive: 2.06 µM [activator, partial curve]	–
CCCOc1ccc(C2c3c(oc4cc(C)c(C)cc4c3=O)C(=O)N2CCCN2CCOCC2)cc1 (stereo not drawn)	inconclusive: 32%	–	–
Cc1ccc(C(=O)c2c(NC(=O)CSc3nnc(N)s3)sc3c2CCCC3)cc1	–	active: 18.4 µM	–
CCOC(=O)Cn1cnc([N+](=O)[O-])n1	–	inconclusive: 0.326 µM [falling, full curve]	–
COc1ccc2c(c1OC)C(=O)OC2CC(=O)c1ccc2c(c1)OCO2 (stereo not drawn)	inconclusive: 20.3%	–	–
CCOc1ccc(OCCSc2nc(-c3ccccc3)cc(=O)[nH]2)cc1	inconclusive: 17.9%	–	–
CCc1ccc(C(=O)OCC(=O)NCC(F)(F)F)cc1	inconclusive: 6.88%	–	–
COc1ccc(-c2csc(N(CC3CCCO3)C(=O)c3cccs3)n2)cc1 (stereo not drawn)	–	inconclusive: 0.731 µM [activator, partial curve, poor fit]	–
CCOc1ccc(Nc2cc(C)nc(-n3nc(C)cc3C)n2)cc1	inconclusive: -17.1%	–	–
O=C(CCN1C(=O)/C(=C/c2ccccc2)SC1=S)NCCc1ccc(O)cc1	–	inconclusive: 29.1 µM [falling, single point]	–

A different layout for some results above.
Cc1ccc(S(=O)(=O)NCC(=O)NC2CCCC2)cc1
  lipid storage change, negative = inhibition: inconclusive: -0.0505%
O=C(NCC1CCCO1)c1nc(Cn2ccc([N+](=O)[O-])n2)no1 (stereo not drawn)
  lipid storage change, negative = inhibition: inconclusive: -5.08%
